From patent publication US7160911B2, “Diarylcycloalkyl derivatives, process for their preparation and their use as pharmaceuticals” (Sanofi-Aventis Deutschland GmbH, priority 2003, dated 2007)
Some of these results come from one statement about several compounds together.

Target: T1, human PPARalpha (Homo sapiens, UniProt Q07869)
T1 construct: amino acids S167–Y468; expressed in transfected cells; host or cells: HEK (human embryo kidney) cells, stably transfected with the pcDNA3 construct
T1 sequence (Q07869 167-468): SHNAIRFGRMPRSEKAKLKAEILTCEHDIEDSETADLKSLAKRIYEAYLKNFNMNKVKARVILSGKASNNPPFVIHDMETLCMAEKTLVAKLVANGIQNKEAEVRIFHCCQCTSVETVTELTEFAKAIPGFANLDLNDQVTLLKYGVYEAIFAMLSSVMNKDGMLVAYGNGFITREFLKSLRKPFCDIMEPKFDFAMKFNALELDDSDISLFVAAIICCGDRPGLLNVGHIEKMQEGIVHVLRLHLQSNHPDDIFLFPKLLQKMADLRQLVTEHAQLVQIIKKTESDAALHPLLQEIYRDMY
Assay: Cellular PPARalpha assay (stably transfected HEK luciferase reporter cell line)
Assay type: cell-based
Settings: units printed within the value (nM to μM), read-out: PPARalpha EC50 values (range over the examples)
Procedure: Determination of EC50 Values of PPAR Agonists in the Cellular PPARalpha Assay
The potency of substances which bind to human PPARalpha and activate in an agonistic manner is analyzed using a stably transfected HEK cell line (HEK=human embryo kidney) which is referred to here as PPARalpha reporter cell line. It contains two genetic elements, a luciferase reporter element (pdeltaM-GAL4-Luc-Zeo) and a PPARalpha fusion protein (GR-GAL4-humanPPARalpha-LBD) which mediates expression of the luciferase reporter element depending on a PPARalpha ligand. The stably and constitutively expressed fusion protein GR-GAL4-humanPPARalpha-LBD binds in the cell nucleus of the PPARalpha reporter cell line via the GAL4 protein portion to the GAL4 DNA binding motifs 5′-upstream of the luciferase reporter element which is integrated in the genome of the cell line.
There is only little expression of the luciferase reporter gene without addition of a PPARalpha ligand if fatty acid-depleted fetal calf serum (cs-FCS) is used in the assay. PPARalpha ligands bind and activate the PPARalpha fusion protein and thereby bring about expression of the luciferase reporter gene. The luciferase which is formed can be detected by means of chemiluminescence via an appropriate substrate.
The PPARalpha reporter cell line was prepared in 2 stages. Firstly, the luciferase reporter element was constructed and stably transfected into HEK cells. For this purpose, five binding sites of the yeast transcription factor GAL4 (each 5′-CGGAGTACTGTCCTCCGAG-3′) (SEQ ID No. 1) were cloned in 5′-upstream of a 68 bp-long minimal MMTV promoter (Genbank Accession # V01175). The minimal MMTV promoter section contains a […] and a TATA element in order to enable efficient transcription by RNA polymerase II. The cloning and sequencing of the GAL4-MMTV construct took place in analogy to the description of Sambrook J. et. al. (Molecular cloning, Cold Spring Harbor Laboratory Press, 1989). Then the complete Photinus pyralis gene (Genbank Accession # M15077) was cloned in 3′-downstream of the GAL4-MMTV element. After sequencing, the luceriferase reporter element consisting of five GAL4 binding sites, MMTV promoter and luciferase gene was recloned into a plasmid which confers zeocin resistance in order to obtain the plasmid pdeltaM-GAL4-Luc-Zeo. This vector was transfected into HEK cells in accordance with the statements in Ausubel, F. M. et al. (Current protocols in molecular biology, Vol. 1–3, John Wiley & Sons, Inc., 1995).
In a second step, the PPARalpha fusion protein (GR-GAL4-humanPPARalpha-LBD) was introduced into the stable cell clone described. For this purpose, initially the cDNA coding for the N-terminal 76 amino acids of the glucocorticoid receptor (Genbank Accession # P04150) was linked to the cDNA section coding for amino acids 1–147 of the yeast transcription factor GAL4 (Genbank Accession # P04386). The cDNA of the ligand-binding domain of the human PPARalpha receptor (amino acids S167–Y468; Genbank Accession # S74349) was cloned in at the 3′-end of this GR-GAL4 construct. The fusion construct prepared in this way (GR-GAL4-humanPPARalpha-LBD) was recloned into the plasmid pcDNA3 (from Invitrogen) in order to enable constitutive expression therein by the cytomegalovirus promoter. This plasmid was linearized with a restriction endonuclease and stably transfected into the previously described cell clone containing the luciferase reporter element. The finished PPARalpha reporter cell line which contains a luciferase reporter element and constitutively expresses the PPARalpha fusion protein (GR-GAL4-human PPARalpha-LBD) was isolated by selection with zeocin (0.5 mg/ml) and G418 (0.5 mg/ml).
The activity of PPARalpha agonists is determined in a 3-day assay which is described below: […]

Row | Compound | EC50
1 | Cc1cccc(CO[C@@H]2CCC[C@H](OCc3nc(-c4ccc(Oc5ccccc5)cc4)oc3C)C2)c1C(=O)O [Example 8] | ≥ 0.05 nM
2 | COc1cccc(-c2nc(CO[C@H]3CCC[C@@H](OCc4cccc(C)c4C(=O)O)C3)c(-c3ccccc3)o2)c1 [Example 12, 2-{(1R,3S)-3-[2-(3-methoxyphenyl)-5-phenyloxazol-4-ylmethoxy]cyclohexyloxy-methyl}-6-methylbenzoic acid] | ≥ 0.05 nM
3 | Cc1cccc(CO[C@@H]2CCC[C@H](OCc3nc(-c4ccc5c(c4)OCO5)oc3C)C2)c1C(=O)O [Example 2, 2-[(1R,3S)-3-(2-benzo[1,3]dioxol-5-yl-5-methyloxazol-4-ylmethoxy)cyclohexyloxy-methyl]-6methylbenzoic acid] | ≥ 0.05 nM
4 | Cc1cccc(CO[C@@H]2CCC[C@H](OCc3nc(-c4ccc(SC(F)(F)F)cc4)oc3C)C2)c1C(=O)O [Example 6] | ≥ 0.05 nM
5 | Cc1ccc(-c2nc(CO[C@H]3CCC[C@@H](OCc4cccc(C)c4C(=O)O)C3)c(-c3ccccc3)o2)cc1 [Example 11, 2-methyl-6-[(1R,3S)-3-(5-phenyl-2-p-tolyloxazol-4-ylmethoxy)cyclohexyloxy-methyl]benzoic acid] | ≥ 0.05 nM
6 | Cc1cccc(CO[C@@H]2CCC[C@H](OCc3nc(-c4cccs4)oc3C)C2)c1C(=O)O [Example 9] | ≥ 0.05 nM
7 | COCCOc1cc(-c2nc(CO[C@H]3CCC[C@@H](OCc4cccc(C)c4C(=O)O)C3)c(C)o2)cc(C(F)(F)F)c1 [Example 10] | ≥ 0.05 nM
8 | Cc1ccc(-c2nc(CO[C@H]3CCC[C@@H](OCc4cccc(C)c4C(=O)O)C3)c(C)o2)o1 [Example 4, 2-methyl-6-{(1R,3S)-3-[5-methyl-2-(5-methylfuran-2-yl)oxazol-4-ylmethoxy]cyclohexyloxy-methyl}benzoic acid] | ≥ 0.05 nM
9 | Cc1cccc(CO[C@@H]2CCC[C@H](OCc3coc(C4CCCCC4)n3)C2)c1C(=O)O [Example 13, 2-[(1R,3S)-3-(2-cyclohexyloxazol-4-ylmethoxy)cyclohexyloxymethyl]-6-methylbenzoic acid] | ≥ 0.05 nM
10 | Cc1ccc(-c2nc(CO[C@H]3CCC[C@@H](OCc4cccc(C)c4C(=O)O)C3)c(C)o2)s1 [Example 5, 2-methyl-6-{(1R,3S)-3-[5-methyl-2-(5-methylthiophen-2-yl)oxazol-4-ylmethoxy]-cyclohexyloxymethyl}benzoic acid] | ≥ 0.05 nM
11 | Cc1cccc(CO[C@@H]2CCC[C@H](OCc3nc(-c4cccc(OC(F)(F)C(F)F)c4)oc3C)C2)c1C(=O)O [Example 7] | ≥ 0.05 nM
12 | Cc1cccc(CO[C@@H]2CCC[C@H](OCc3nc(-c4ccc5ccccc5c4)oc3C)C2)c1C(=O)O [Example 1, 2-methyl-6-[(1R,3S)3-(5-methyl-2-naphthalen-2-yloxazol-4-yl-methoxy)cyclohexyloxymethyl]benzoic acid] | ≥ 0.05 nM
13 | Cc1cccc(CO[C@@H]2CCC[C@H](OCc3nc(-c4ccc5c(c4)OCCO5)oc3C)C2)c1C(=O)O [Example 3] | ≥ 0.05 nM
